Experimental data from US8232584B2 (priority 2005, dated 2012).

Test system: monoclonal antibodies for PSA (Ab1)
Assay type: binding

“f-PSA: free prostate specific antigen, cancer marker protein, purchased from Calbiochem” was tested, and the “concentration down to which label-free detection was achieved” value (buffer solution, signal to noise >3, listed as PSA) was “about 75 fg/ml” and the “PSA concentration giving well-defined conductance changes in serum” value (desalted undiluted donkey serum, 59 mg/ml total protein) was no more than 0.9 pg/mL.
